In PubChem BioAssay AID2551 (National Center for Advancing Translational Sciences (NCATS), 2010):
Screen size: about 310,000 compounds; about 17,000 (5.5%) were called active. Inconclusive means that the source gave no clear call. Such entries were picked first, then a sample of the others. Calls follow the shape of the dose curve; as a rule, active = well fitted inhibition curve with a large enough effect; inconclusive = small, poorly fitted or top-dose-only effect, or effect the other way; inactive = no such curve, though single readings can be large or run the other way. A potency beside an inconclusive call is a rough fit, not a confirmed value.

The chains behind the UniProt entries cited, without tags or fusion partners. Where a name states a change or a piece, a line headed by the entry shows the natural chain unless it says otherwise.
UniProt P51450: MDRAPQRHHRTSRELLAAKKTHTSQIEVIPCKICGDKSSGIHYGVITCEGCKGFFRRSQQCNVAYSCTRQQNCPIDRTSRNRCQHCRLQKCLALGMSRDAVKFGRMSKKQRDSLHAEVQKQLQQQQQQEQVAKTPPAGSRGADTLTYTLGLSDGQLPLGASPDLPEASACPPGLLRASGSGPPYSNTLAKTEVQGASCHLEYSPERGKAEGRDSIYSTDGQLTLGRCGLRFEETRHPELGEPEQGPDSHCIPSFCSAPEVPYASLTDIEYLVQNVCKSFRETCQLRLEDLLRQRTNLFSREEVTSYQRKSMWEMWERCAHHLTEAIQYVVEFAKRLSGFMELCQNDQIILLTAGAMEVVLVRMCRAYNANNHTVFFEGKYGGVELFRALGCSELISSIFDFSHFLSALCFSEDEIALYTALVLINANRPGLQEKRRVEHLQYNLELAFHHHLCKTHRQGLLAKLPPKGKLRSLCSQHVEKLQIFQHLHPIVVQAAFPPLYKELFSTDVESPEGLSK

biological target: Nuclear receptor ROR-gamma (Mus musculus) (UniProt P51450); experiment: qHTS for inhibitors of ROR gamma transcriptional activity; settings: Drosophila S2 Gal4-RORgamma UAS-luciferase reporter, 20 h; activity change, negative = inhibition: at 53.6 µM (top of the series); also: nearly all actives have a fitted effect of over 60% in size
Summary of the method: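 Read-out: Photinus luciferase luminescence; inhibitors lower reporter signal. Insect Schneider cells with Gal4-ROR gamma fusion under metallothionein promoter, UAS reporter; 700 uM final copper sulfate induction, 20 hr, ambient temperature.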
% is scaled to controls: 0 for no effect and ±100 for the full control effect; potency is read from the fitted curve at half-maximal effect.

Potency, inconclusive:
O=C1CCCCCN1Sc1ccccc1 22.4 µM [inhibitor, single point], O=C(Oc1cccc(C(=S)N2CCOCC2)c1)c1cccc(Cl)c1 35.5 µM [inhibitor, single point], COCCn1c(C)c(C)c2c(NCCc3ccccc3)ncnc21 8.91 µM [inhibitor, partial curve], Cc1ccc(-c2csc3ncnc(OCC(=O)NC(=O)NCc4ccco4)c23)cc1 35.5 µM [activator, single point], CCCNC(=O)C1CCN(c2ccc(S(=O)(=O)N3CCOCC3)cc2Cl)CC1 5.01 µM [activator, partial curve, poor fit], Cc1ccc(-c2csc(NC(=O)c3ccc(-c4ccccc4)cc3)n2)o1 22.4 µM [inhibitor, single point], Cc1c(CCC(=O)NCCC(=O)O)c(=O)oc2cc3occ(-c4ccccc4)c3cc12 20 µM [inhibitor, single point], O=C(COc1ccc2c(-c3ccccc3)cc(=O)oc2c1)NCc1ccccn1 17.8 µM [activator, single point], COc1ccc(C/C(C)=N/NC(=S)Nc2ccc(C)c(C)c2)cc1 10 µM [inhibitor, partial curve, poor fit], CCC(=O)N/N=C(\C)CC(=O)Nc1ccc2c(c1)OCCO2 11.2 µM [activator, partial curve], CCO[C@@H]1OC(C(=O)N2CCN(Cc3ccc4c(c3)OCO4)CC2)=C[C@H](c2csc3ccccc23)[C@H]1CCCO 35.5 µM [inhibitor, single point], Cc1nc(NC2CCCCC2)c2nc(-c3ccccc3)n(CCCN3CCCCC3C)c2n1 (stereo not given) 17.8 µM [inhibitor, single point], Cc1ccc(Cn2c(C)nc3ccc([N+](=O)[O-])cc3c2=O)cc1 12.6 µM [activator, single point], CCOCCn1c(COc2ccccc2)nc2ccccc21 25.1 µM [inhibitor, single point], COc1ccc2[nH]c(C(=O)N/N=C/c3cc(OC)c(OC)c(OC)c3)cc2c1 10 µM [activator, partial curve], Cc1ccc(NC(=O)Nc2nnc(Cc3ccc([N+](=O)[O-])cc3)s2)cc1 2.51 µM [activator, single point], O=C1/C(=C/c2ccc(Br)cc2)Oc2cc(O)ccc21 10 µM [activator, partial curve], O=[N+]([O-])c1ccc2c(c1)C(N1CCOCC1)/C(=C/COc1ccc(F)cc1)O2 (stereo not given) 6.31 µM [activator, partial curve], O=C(CSc1nnc(Cn2nnc(-c3ccccc3)n2)n1-c1ccccc1)Nc1ccc(F)cc1 1.58 µM [inhibitor, partial curve], CC(C)COC(=O)C(C#N)c1nc2ccccc2nc1N1CCN(Cc2ccc3c(c2)OCO3)CC1 (stereo not given) 35.5 µM [activator, single point], COc1ccc(CNC(=O)COC(=O)C2CC3C=CC2C3)cc1 (stereo not given) 0.251 µM [inhibitor, full curve, poor fit], CC(=O)C1CCC2C3CCC4=CC(=O)CC[C@]4(C)[C@@]3(F)C(O)C[C@]12C (stereo not given in full) 12.6 µM [inhibitor, single point], Cc1ccc(Nc2nc(N)c([N+](=O)[O-])c(N3CCOCC3)n2)cc1C 8.91 µM [activator, partial curve], N#C/C(=C(/O)COC(=O)c1ccc2c(c1)OCCO2)c1nc2ccccc2[nH]1 25.1 µM [inhibitor, single point], COc1ccc(NS(=O)(=O)c2ccc(Oc3ncccn3)cc2)cc1 35.5 µM [activator, single point], N#CCSc1nc(Nc2ccc3c(c2)OCO3)c2ccccc2n1 15.8 µM [activator, single point], Cc1ccccc1CN1CCN(C/C=C/c2ccccc2)CC1 3.16 µM [inhibitor, single point], O=c1c(-c2cccs2)nc2cnc(Oc3cccc(Cl)c3)nc2n1C[C@H]1CCCO1 12.6 µM [activator, single point], CCc1ccc(NS(=O)(=O)c2cc3c(cc2C)n(C)c(=O)c(=O)n3C)cc1 8.91 µM [activator, partial curve], Cc1nc(N2CCN(Cc3ccccc3)CC2)nc2c1C(=O)CCC2 25.1 µM [inhibitor, single point], COc1ccccc1N1CCN(C(=O)CN(c2cc(C)cc(C)c2)S(C)(=O)=O)CC1 3.16 µM [inhibitor, single point], COC(=O)C1CN(C(=O)COc2ccc(Cl)c(C)c2)c2ccccc2O1 (stereo not given) 35.5 µM [activator, single point], CCn1c(N)c(C(=O)NC2CCCCC2)sc1=S 2.51 µM [activator, full curve, poor fit], O=C(Nc1ccc(F)cc1F)c1ccc2c(c1)[nH]c(=O)n2Cc1ccc(F)cc1 10 µM [activator, partial curve], COc1ccc(OC)c(NC(=O)c2cccc(Cn3cc(Br)c([N+](=O)[O-])n3)c2)c1 10 µM [activator, partial curve], Cc1c(C(=O)OCC(C)C)[nH]c2c1C(=O)CC(c1ccco1)C2 (stereo not given) 12.6 µM [activator, partial curve], O=C(COc1ccc2ccccc2c1)NNC(=O)c1cnccn1 12.6 µM [inhibitor, single point], COC(=O)C1=C(C)N(c2ccc(C)c(C)c2)/C(=C/c2ccc(O)cc2)C1=O 20 µM [inhibitor, single point], CCc1ccc(C(=O)/C=C/Nc2ccc(S(=O)(=O)Nc3onc(C)c3C)cc2)cc1 22.4 µM [inhibitor, single point], CC(/C=N/n1c(-c2ccccc2)n[nH]c1=S)=C\c1ccco1 7.08 µM [inhibitor, partial curve, poor fit], COc1ccc(NC(=O)CN(C)CC(=O)Nc2ccc(Cl)cc2[N+](=O)[O-])cc1 11.2 µM [activator, partial curve], Cc1cc(OCn2ccc(C(=O)O)n2)ccc1Cl 11.2 µM [inhibitor, partial curve, poor fit]

Potency, active:
Cc1ccccc1NC(=O)CCC(=O)N/N=C/c1cc([N+](=O)[O-])ccc1O 3.98 µM, FC(F)(F)c1ccccc1NC(=S)NN=C1CCCCCC1 4.47 µM, CC/C(O)=C(\C#N)c1nnc2n1CCCCC2 12.6 µM, O=C(/C=C/c1ccccc1)Oc1cccc2cccnc12 0.708 µM, C=CCn1c(O)c(N=NC(=S)Nc2ccccc2C)c2cc(S(=O)(=O)N3CCOCC3)ccc21 0.501 µM, COc1ccc(-c2nnc(SCC(=O)Nc3nncs3)o2)cc1 7.08 µM, CC(C)(C)C(=O)NC(NC(=S)Nc1sc2c(c1C#N)CCCC2)C(Cl)(Cl)Cl (stereo not given) 10 µM, COc1ccc(-n2cc(CNCCCn3ccnc3)c(-c3cccc(F)c3)n2)cc1 11.2 µM, CCOc1cccc(/C=N/NC(=S)Nc2ccccc2[N+](=O)[O-])c1O 5.01 µM, CSc1ccc(/C=N/n2c(C3CCCCC3)n[nH]c2=S)cc1 1.58 µM, O=S(=O)(c1ccccc1)c1ncc(C(F)(F)F)cc1Cl 8.91 µM

Activity change, negative = inhibition, inactive:
CC(=O)N1CCC2(CC1)CN(c1ccccn1)C2 -6.29%, COC(=O)c1ccc2c(=O)n(CCN3CCOCC3)c(SCC(=O)Nc3ccccc3Cl)nc2c1 6.24%, O=C1C2C3C=CC(C3)C2C(=O)N1c1ccccc1 (stereo not given) 21.6%, O=C(Cc1ccccc1)N/N=C/c1ccccc1F 1.77%, CC1(C)CC(=O)C=C(C(=O)N2CCCC(CCC(=O)NCc3ccccc3F)C2)O1 (stereo not given) 28.8%, Cc1c(OCC(=O)NC(Cc2ccc(Cl)cc2)C(=O)O)ccc2c1oc(=O)c1ccccc12 (stereo not given) -7.19%, Cc1ccc(S(=O)(=O)N(C)CC(=O)OCC(=O)N2CCN(c3ccccc3)CC2)cc1 -17.9%, COc1ccc2c(c1)CCCC21SC(NC(C)=O)=NN1C(C)=O (stereo not given) 1.46%, COC(=O)[C@H]1[C@@H]2C[C@H]3c4[nH]c5ccccc5c4CCN3C[C@@H]2CC[C@@H]1O 4.63%, O=C(NCc1ccccc1)C1(C(F)(F)F)CC(CCCO)CCCO1 (stereo not given) 0.815%, CN(C)c1ccc(NC(=O)CN2C(=O)c3ccccc3C2=O)cc1 -6.8% [at 1.91 µM], C=C(C(C)=O)C(O)c1ccc(C(F)(F)F)cc1 (stereo not given) 5.13%, CCCN1CCC(=O)N([C@H](COc2ccccc2)CC(C)C)CC1 -9.36%, CNC(=S)NNC(=O)c1ccc(N(C)C)cc1 -16.2%, CCCNC(=O)c1c(NC(=O)C2COc3ccccc3O2)sc2c1CCCC2 (stereo not given) -2.99%, COc1cccc(CNC(=O)CCSCc2ccccc2F)c1 -10.5%, CCOc1ccc(-n2c(-c3ccccc3)nnc2-c2ccccc2)cc1 -5.14%
